## Drug screen on melanoma cell lines: apoptosis marker

From a melanoma drug combination screen (doi:10.1371/journal.pone.0140310); values rounded.

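Human melanoma cells were exposed to two drugs together for 72 h in 1,536-well plates and read by automated microscopy after fixing and staining. Values are the share of nuclei positive for cleaved PARP as a percentage of the same share in the DMSO control: 100 is the control level, higher means more apoptosis. Every drug was used at one fixed concentration, the higher of two screened. No replicate spread is given; individual values may be noisy. The marker varies much from line to line, for technical or biological reasons.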 Only some of the drugs and lines screened are listed, without regard to their results.

Compounds and concentrations:
NVP-TAE684, 0.4 µM: COc1cc(N2CCC(N3CCN(C)CC3)CC2)ccc1Nc1ncc(Cl)c(Nc2ccccc2S(=O)(=O)C(C)C)n1
PF-562271, 0.4 µM: CN(c1ncccc1CNc1nc(Nc2ccc3c(c2)CC(=O)N3)ncc1C(F)(F)F)S(C)(=O)=O
STA-4783, 0.03 µM: CN(NC(=O)CC(=O)NN(C)C(=S)c1ccccc1)C(=S)c1ccccc1
tamatinib, 2 µM: COc1cc(Nc2ncc(F)c(Nc3ccc4c(n3)NC(=O)C(C)(C)O4)n2)cc(OC)c1OC
vorinostat, 0.4 µM: O=C(CCCCCCC(=O)Nc1ccccc1)NO
bexarotene, 10 µM: C=C(c1ccc(C(=O)O)cc1)c1cc2c(cc1C)C(C)(C)CCC2(C)C
indole-3-carbinol, 4 µM: OCc1c[nH]c2ccccc12
dorsomorphin, 2 µM: c1cc(-c2cnn3cc(-c4ccc(OCCN5CCCCC5)cc4)cnc23)ccn1
ENMD-2076, 0.2 µM: Cc1cc(Nc2cc(N3CCN(C)CC3)nc(/C=C/c3ccccc3)n2)n[nH]1
temozolomide, 10 µM: Cn1nnc2c(C(N)=O)ncn2c1=O
bortezomib, 0.005 µM: CC(C)C[C@H](NC(=O)[C@H](Cc1ccccc1)NC(=O)c1cnccn1)B(O)O
vincristine, 0.0005 µM: CC[C@]1(O)C[C@H]2CN(CCc3c([nH]c4ccccc34)[C@@](C(=O)OC)(c3cc4c(cc3OC)N(C=O)[C@H]3[C@@](O)(C(=O)OC)[C@H](OC(C)=O)[C@]5(CC)C=CCN6CC[C@]43[C@@H]65)C2)C1
crizotinib, 1 µM: C[C@@H](Oc1cc(-c2cnn(C3CCNCC3)c2)cnc1N)c1c(Cl)ccc(F)c1Cl
GW2580, 5 µM: COc1ccc(COc2ccc(Cc3cnc(N)nc3N)cc2OC)cc1
docetaxel, 0.0005 µM: CC(=O)O[C@@]12CO[C@@H]1C[C@H](O)[C@@]1(C)C(=O)[C@H](O)C3=C(C)[C@@H](OC(=O)[C@H](O)[C@@H](NC(=O)OC(C)(C)C)c4ccccc4)C[C@@](O)([C@@H](OC(=O)c4ccccc4)[C@H]21)C3(C)C
NVP-BEZ235, 0.02 µM: Cn1c(=O)n(-c2ccc(C(C)(C)C#N)cc2)c2c3cc(-c4cnc5ccccc5c4)ccc3ncc21
SNS-314, 0.004 µM: O=C(Nc1cccc(Cl)c1)Nc1ncc(CCNc2ncnc3ccsc23)s1
CHIR-265, 0.4 µM: Cn1c(Nc2ccc(C(F)(F)F)cc2)nc2cc(Oc3ccnc(-c4ncc(C(F)(F)F)[nH]4)c3)ccc21

{"combination": "SNS-314 + NVP-TAE684", "IPC-298": 30.7, "UACC-62": 56.6, "WM115": 218, "A2058": 219, "COLO 792": 276, "COLO 800": 287, "MeWo": 172, "LOX IMVI": 85.8}
{"combination": "NVP-BEZ235 + dorsomorphin", "IPC-298": 59.1, "UACC-62": 428, "WM115": 99.9, "A2058": 334, "COLO 792": 132, "COLO 800": 77.1, "MeWo": 215, "LOX IMVI": 215}
{"combination": "ENMD-2076 + bortezomib", "IPC-298": 662, "UACC-62": 197, "WM115": 6160, "A2058": 1020, "COLO 792": 406, "COLO 800": 88.8, "MeWo": 1190, "LOX IMVI": 389}
{"combination": "NVP-BEZ235 + GW2580", "IPC-298": 55.2, "UACC-62": 306, "WM115": 109, "A2058": 94.4, "COLO 792": 75.0, "COLO 800": 134, "MeWo": 131, "LOX IMVI": 110}
{"combination": "temozolomide + SNS-314", "IPC-298": 46.6, "UACC-62": 71.9, "WM115": 402, "A2058": 203, "COLO 792": 78.1, "COLO 800": 289, "MeWo": 185, "LOX IMVI": 273}
{"combination": "temozolomide + STA-4783", "IPC-298": 253, "UACC-62": 187, "WM115": 1170, "A2058": 1980, "COLO 792": 966, "COLO 800": 318, "MeWo": 461, "LOX IMVI": 56.3}
{"combination": "ENMD-2076 + vincristine", "IPC-298": 87.1, "UACC-62": 209, "WM115": 492, "A2058": 135, "COLO 792": 51.6, "COLO 800": 171, "MeWo": 21.2, "LOX IMVI": 111}
{"combination": "docetaxel + GW2580", "IPC-298": 1280, "UACC-62": 433, "WM115": 294, "A2058": 3150, "COLO 792": 677, "COLO 800": 402, "MeWo": 611, "LOX IMVI": 133}
{"combination": "vincristine + GW2580", "IPC-298": 91.0, "UACC-62": 177, "WM115": 55.0, "A2058": 98.0, "COLO 792": 87.6, "COLO 800": 59.3, "MeWo": 147, "LOX IMVI": 85.7}
{"combination": "indole-3-carbinol + dorsomorphin", "IPC-298": 168, "UACC-62": 172, "WM115": 59.7, "A2058": 166, "COLO 792": 77.8, "COLO 800": 105, "MeWo": 140, "LOX IMVI": 27.5}
{"combination": "CHIR-265 + GW2580", "IPC-298": 175, "UACC-62": 248, "WM115": 423, "A2058": 222, "COLO 792": 889, "COLO 800": 75.8, "MeWo": 81.2, "LOX IMVI": 97.0}
{"combination": "PF-562271 + crizotinib", "IPC-298": 92.4, "UACC-62": 213, "WM115": 223, "A2058": 149, "COLO 792": 118, "COLO 800": 95.0, "MeWo": 42.4, "LOX IMVI": 198}
{"combination": "vorinostat + CHIR-265", "IPC-298": 278, "UACC-62": 248, "WM115": 255, "A2058": 55.2, "COLO 792": 791, "COLO 800": 140, "MeWo": 124, "LOX IMVI": 53.7}
{"combination": "dorsomorphin + SNS-314", "IPC-298": 63.4, "UACC-62": 114, "WM115": 145, "A2058": 441, "COLO 792": 93.7, "COLO 800": 279, "MeWo": 160, "LOX IMVI": 98.1}
{"combination": "PF-562271 + NVP-TAE684", "IPC-298": 105, "UACC-62": 354, "WM115": 119, "A2058": 199, "COLO 792": 122, "COLO 800": 176, "MeWo": 181, "LOX IMVI": 154}
{"combination": "bortezomib + indole-3-carbinol", "IPC-298": 2250, "UACC-62": 227, "WM115": 4410, "A2058": 2750, "COLO 792": 244, "COLO 800": 138, "MeWo": 1660, "LOX IMVI": 351}
{"combination": "GW2580 + STA-4783", "IPC-298": 27.1, "UACC-62": 514, "WM115": 2230, "A2058": 3840, "COLO 792": 520, "COLO 800": 979, "MeWo": 268, "LOX IMVI": 96.4}
{"combination": "temozolomide + NVP-TAE684", "IPC-298": 54.3, "UACC-62": 226, "WM115": 288, "A2058": 682, "COLO 792": 154, "COLO 800": 517, "MeWo": 108, "LOX IMVI": 65.9}
{"combination": "dorsomorphin + crizotinib", "IPC-298": 48.6, "UACC-62": 306, "WM115": 603, "A2058": 467, "COLO 792": 45.3, "COLO 800": 338, "MeWo": 181, "LOX IMVI": 96.5}
{"combination": "tamatinib + SNS-314", "IPC-298": 43.5, "UACC-62": 198, "WM115": 1080, "A2058": 324, "COLO 792": 373, "COLO 800": 199, "MeWo": 189, "LOX IMVI": 286}
{"combination": "bexarotene + NVP-BEZ235", "IPC-298": 110, "UACC-62": 198, "WM115": 54.3, "A2058": 129, "COLO 792": 178, "COLO 800": 113, "MeWo": 66.0, "LOX IMVI": 102}
{"combination": "NVP-BEZ235 + CHIR-265", "IPC-298": 555, "UACC-62": 253, "WM115": 3870, "A2058": 496, "COLO 792": 1830, "COLO 800": 40.5, "MeWo": 183, "LOX IMVI": 40.1}
{"combination": "NVP-BEZ235 + docetaxel", "IPC-298": 582, "UACC-62": 485, "WM115": 2220, "A2058": 1920, "COLO 792": 296, "COLO 800": 42.6, "MeWo": 696, "LOX IMVI": 93.7}
{"combination": "tamatinib + GW2580", "IPC-298": 104, "UACC-62": 277, "WM115": 131, "A2058": 195, "COLO 792": 103, "COLO 800": 133, "MeWo": 96.1, "LOX IMVI": 138}
{"combination": "dorsomorphin + vincristine", "IPC-298": 166, "UACC-62": 580, "WM115": 472, "A2058": 6760, "COLO 792": 71.7, "COLO 800": 249, "MeWo": 438, "LOX IMVI": 216}
{"combination": "vincristine + bexarotene", "IPC-298": 120, "UACC-62": 255, "WM115": 52.4, "A2058": 80.2, "COLO 792": 80.4, "COLO 800": 141, "MeWo": 59.0, "LOX IMVI": 98.5}
{"combination": "dorsomorphin + ENMD-2076", "IPC-298": 52.6, "UACC-62": 322, "WM115": 116, "A2058": 597, "COLO 792": 165, "COLO 800": 78.8, "MeWo": 248, "LOX IMVI": 94.3}
{"combination": "docetaxel + vorinostat", "IPC-298": 390, "UACC-62": 152, "WM115": 209, "A2058": 2180, "COLO 792": 1840, "COLO 800": 587, "MeWo": 898, "LOX IMVI": 133}

The first 3 entries again:

{"combination": "SNS-314 + NVP-TAE684", "IPC-298": 30.7, "UACC-62": 56.6, "WM115": 218, "A2058": 219, "COLO 792": 276, "COLO 800": 287, "MeWo": 172, "LOX IMVI": 85.8}
{"combination": "NVP-BEZ235 + dorsomorphin", "IPC-298": 59.1, "UACC-62": 428, "WM115": 99.9, "A2058": 334, "COLO 792": 132, "COLO 800": 77.1, "MeWo": 215, "LOX IMVI": 215}
{"combination": "ENMD-2076 + bortezomib", "IPC-298": 662, "UACC-62": 197, "WM115": 6160, "A2058": 1020, "COLO 792": 406, "COLO 800": 88.8, "MeWo": 1190, "LOX IMVI": 389}